Measurements from publication PMC4068993, “Chlamydia pneumoniae CopD Translocator Protein Plays a Critical Role in Type III Secretion (T3S) and Infection” (PLoS ONE, 2014).
Results are given in words; binding and its absence hold for the method and conditions named. Binding seen in cells or lysates may run through a third protein. For part of these data: A result given as binding can be weak or reduced; the word gives no strength. Where a sequence is shown, tags or fusion partners need not be part of it.

Columns and labels:
Assay in all cases: pull-down; GST-tagged bait on glutathione-agarose beads blocked with 5% BSA; 1 mL E. coli lysate with overexpressed His-tagged prey, 2 h at 4°C; seven washes with high salt buffer (500 mM KCl, 20 mM TRIS-HCl pH 7.0, 0.1% Triton X-100; results say 500 mM NaCl); anti-His Western blot; only the target purified
[1] = target: T1, GST-CopD_(1–137) (Chlamydia pneumoniae CWL029) (UniProt Q9Z798)
T1 sequence: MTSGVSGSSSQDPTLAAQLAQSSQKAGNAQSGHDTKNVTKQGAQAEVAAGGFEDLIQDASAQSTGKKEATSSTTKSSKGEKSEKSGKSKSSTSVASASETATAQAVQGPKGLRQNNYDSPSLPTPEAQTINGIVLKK

[2] = target: T2, GST-CopD_(1–157) (Chlamydia pneumoniae CWL029) (UniProt Q9Z798)
T2 sequence: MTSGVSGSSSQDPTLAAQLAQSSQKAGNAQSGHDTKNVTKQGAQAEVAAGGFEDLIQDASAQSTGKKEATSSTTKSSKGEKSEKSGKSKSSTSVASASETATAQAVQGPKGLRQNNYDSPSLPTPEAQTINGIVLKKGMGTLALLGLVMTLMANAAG

[3] = target: T3, GST-CopD_(227–444) (Chlamydia pneumoniae CWL029) (UniProt Q9Z798)
T3 sequence: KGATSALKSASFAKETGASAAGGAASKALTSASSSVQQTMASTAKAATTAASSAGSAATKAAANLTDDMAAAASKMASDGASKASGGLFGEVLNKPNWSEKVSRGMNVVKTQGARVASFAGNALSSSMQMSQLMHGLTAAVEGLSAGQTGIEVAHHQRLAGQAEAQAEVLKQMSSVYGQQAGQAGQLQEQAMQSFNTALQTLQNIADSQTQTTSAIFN

For “His-LcrH_1 (Chlamydia pneumoniae CWL029)”, which binding [1] is on record?
The binding was “no binding”.

What about the binding [2] of the same substance?
The binding was “binds”.

And the binding [3]?
Its binding is “no binding”.
